Results: article PMC5727935, “The distinctive cell division interactome of Neisseria gonorrhoeae” (BMC Microbiology, 2017)

How the values were obtained:
Test in all cases: two-hybrid; bacterial two-hybrid (Di Lallo): fusions to P22 and 434 repressor ends in E. coli R721, 34 °C; residual β-galactosidase activity against R721 without plasmids (2504 ± 34 Miller units); less than 50% counts as a positive interaction
[1] = target: T1, N. gonorrhoeae FtsW, bacterial two-hybrid fusion (Neisseria gonorrhoeae CH811) (UniProt B4RQC6)
T1 sequence: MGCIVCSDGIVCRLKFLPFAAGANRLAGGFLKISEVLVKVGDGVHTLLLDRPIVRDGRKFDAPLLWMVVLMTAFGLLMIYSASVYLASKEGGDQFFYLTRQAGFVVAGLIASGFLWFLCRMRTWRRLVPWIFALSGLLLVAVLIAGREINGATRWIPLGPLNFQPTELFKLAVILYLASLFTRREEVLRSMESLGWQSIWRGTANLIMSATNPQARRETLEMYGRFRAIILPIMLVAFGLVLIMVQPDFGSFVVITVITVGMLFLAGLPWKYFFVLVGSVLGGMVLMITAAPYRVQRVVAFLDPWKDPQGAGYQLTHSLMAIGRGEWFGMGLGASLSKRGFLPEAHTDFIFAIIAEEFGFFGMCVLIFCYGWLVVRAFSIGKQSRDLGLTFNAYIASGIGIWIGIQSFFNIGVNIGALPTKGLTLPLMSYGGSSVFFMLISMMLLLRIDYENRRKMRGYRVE

[2] = target: T2, N. gonorrhoeae FtsQ, bacterial two-hybrid fusion (Neisseria gonorrhoeae CH811) (UniProt Q5F6M1)
T2 sequence: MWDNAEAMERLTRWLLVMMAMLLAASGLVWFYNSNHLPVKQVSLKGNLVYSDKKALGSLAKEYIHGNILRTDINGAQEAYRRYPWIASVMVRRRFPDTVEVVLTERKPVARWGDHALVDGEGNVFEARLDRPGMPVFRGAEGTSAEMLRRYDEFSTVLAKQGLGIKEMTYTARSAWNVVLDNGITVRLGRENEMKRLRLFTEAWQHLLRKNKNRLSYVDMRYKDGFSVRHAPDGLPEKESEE

[3] = target: T3, N. gonorrhoeae FtsZ, bacterial two-hybrid fusion (Neisseria gonorrhoeae) (UniProt P72079)
T3 sequence: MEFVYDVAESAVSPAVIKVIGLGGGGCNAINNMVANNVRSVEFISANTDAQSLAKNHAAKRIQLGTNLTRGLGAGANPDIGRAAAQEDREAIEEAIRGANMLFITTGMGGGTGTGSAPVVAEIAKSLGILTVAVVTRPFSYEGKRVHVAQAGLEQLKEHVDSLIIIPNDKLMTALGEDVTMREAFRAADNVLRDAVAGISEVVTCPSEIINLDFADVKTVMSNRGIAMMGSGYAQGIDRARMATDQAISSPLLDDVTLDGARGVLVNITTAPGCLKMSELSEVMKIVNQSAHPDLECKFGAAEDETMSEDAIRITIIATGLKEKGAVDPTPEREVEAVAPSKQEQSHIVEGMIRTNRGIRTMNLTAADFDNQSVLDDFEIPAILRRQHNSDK

[4] = target: T4, N. gonorrhoeae FtsA, bacterial two-hybrid fusion (Neisseria gonorrhoeae CH811) (UniProt Q5F6M2)
T4 sequence: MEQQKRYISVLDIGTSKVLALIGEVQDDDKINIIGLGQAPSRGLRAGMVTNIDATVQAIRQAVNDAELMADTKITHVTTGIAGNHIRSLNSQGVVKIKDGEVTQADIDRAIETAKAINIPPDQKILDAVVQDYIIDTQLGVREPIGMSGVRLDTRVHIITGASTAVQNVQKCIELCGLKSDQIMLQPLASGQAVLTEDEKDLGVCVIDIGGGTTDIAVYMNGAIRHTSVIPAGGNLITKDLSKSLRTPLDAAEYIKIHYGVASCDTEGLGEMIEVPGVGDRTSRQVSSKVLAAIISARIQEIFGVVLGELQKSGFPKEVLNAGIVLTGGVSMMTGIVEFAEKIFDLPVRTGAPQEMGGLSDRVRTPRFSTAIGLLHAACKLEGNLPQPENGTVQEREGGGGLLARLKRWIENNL

[5] = target: N. gonorrhoeae FtsN, bacterial two-hybrid fusion (Neisseria gonorrhoeae CH811)
[6] = target: N. gonorrhoeae FtsK, bacterial two-hybrid fusion (Neisseria gonorrhoeae CH811)

FtsANg truncation T6 (amino acids 351-414), bacterial two-hybrid fusion (Neisseria gonorrhoeae) (domain or fragment)
binding [1]: no binding
binding [2]: no binding
binding [3]: no binding

N. gonorrhoeae FtsI, bacterial two-hybrid fusion (Neisseria gonorrhoeae CH811)
binding [4]: no binding
binding [2]: no binding
binding [3]: no binding

N. gonorrhoeae FtsK, bacterial two-hybrid fusion (Neisseria gonorrhoeae CH811)
binding [1]: no binding

N. gonorrhoeae ZipA, bacterial two-hybrid fusion (Neisseria gonorrhoeae CH811)
binding [1]: no binding
binding [4]: no binding
binding [2]: no binding

B1: N. gonorrhoeae FtsQ, bacterial two-hybrid fusion (protein, UniProt Q5F6M1 1-242)
chain: T2 sequence
binding [5]: no binding
binding [6]: no binding

B2: N. gonorrhoeae FtsZ, bacterial two-hybrid fusion (natural protein, Neisseria gonorrhoeae, UniProt P72079 1-392, looked up)
chain: T3 sequence
notes: FtsZ of Neisseria gonorrhoeae; Cloned in both vectors (pcIp22 and pcI434); each fusion carries one of the two repressor ends; also called FtsZNg; pcIp22-Z; source: bacterial two-hybrid fusion, expressed in E. coli R721
binding [5]: no binding

B3: N. gonorrhoeae FtsW, bacterial two-hybrid fusion (protein, UniProt B4RQC6 1-462)
chain: T1 sequence
binding [5]: no binding

These are yes or no findings as the source states them, for the method shown. Sequences can lack the tags named with a protein.
